These are yes or no findings as the source states them, for the method shown. In cells and extracts the contact can be indirect. These calls come from enrichment with a bait or labelling near it, and not all partners need be listed. For some assays here: No binding means not detected with the bait. Tags and fused reporters may be left off the sequences shown.
B1: Arid4a (protein, UniProt F8VPQ2 1-1261)
chain: MKAADEPAYLTVGTDVSAKYRGAFCEAKIKTVKRLVKVKVLLKQDNTTQLVQDDQVKGPLRVGAIVETRTSDGSIQEAIISKLTDASWYTVVFDDGDERTLRRTSLCLKGERHFAESETLDQLPLTNPEHFGTPVIAKKTNRGRRSSLPITEDEKEEESSEEEDEDKRRLNDELLGKVVSVASTAESTGWYPALVVSPSCNDDVTVKKDQCLVRSFIDSKFYSIARKDIKELDILTLPESELCARPGLRRASVFLKGRIVPDNWKMDISEILESSSSDDEECPAEEHEEEKEKEAKKEEEELPEEELDPEERDNFLQQLYKFMEDRGTPINKPPVLGYKDLNLFKLFRLVYHQGGCGNIDSGAVWKQIYMDLGIPILNSAASYNVKTAYRKYLYGFEEYCRSANIQFRTIHHHEPKVKEEKKDFEDSMDEALKEAPEMPLLDVKSEPEENTDSNSESDREDTELKSPRGRRKIVRDANCIKKEIEEEKIEDKFLRDDLENKDAGDDDDDGDPAAKREHELLFGRKSTPKNKEKKIKKPEDSERDSDEEEEKSQEREETESRCDSEGEDEEDDTEPCLTGTKVKVKYGRGKTQKIYEASIKSTEMDDGEILYLVHYYGWNVRYDEWVKADRIIWPLDKGGPKKKQKKKVKNKEDSEKDEKRDEERQKSKRGRPPLKSTFSPNMPYSLSKTSNSEGKSDSCSSDSEADDQLEKSSGGEDLSPDVKEELEKNENAHDDKLDEENPKIVHISKENDRTQAQPSDTLTVEAGDSDQIVHIFGDKVDQVEEFKKQVEKSPKGKGRRSKTKDLSLELIKISPFGQEEAGSEAHGDVHSLEFSSLECKNFSSTEDDIDPYEKEKKLKRKILGQQSPEKKLRLDNGMEMTTGVSQERSDDGAGAEGMKGAHVEQHFETEGEGMPSLTAEPDQGLQELTSEKSDSPAEEEPVHTPLKEEEDAMPLIGPETLVCHEVDLDDLDEKDKTSIEDVVVEGSESNSLASVPPALPPVAQHNFSVASPLTLSQDESRSIKSESDITIEVDSIAEESQEGLCERESANGFEASVASGACSIIAHERESREKGQKRPSDGNSGLIAKKQKRTPKRTSAAAKTEKNGAGQSSDSEDLPAMDSSSNCTPVKRLTLPKSQKLPRSPARTSPHIKDAEKEKHREKHPNSSPRTYKWSFQLNELDNMNSTERISFLQEKLQEIRKYYMSLKSEVATIDRRRKRLKKKDREVSHAGASMSSASSDTGMSPSSSSPPQNVLAVECR
B2: Arid4b (protein, UniProt A2CG63 1-1314)
chain: MKALDEPPYLTVGTDVSAKYRGAFCEAKIKTAKRLVKVKVTFRHDSSTVEVQDDHIKGPLKVGAIVEVKNLDGAYQEAVINKLTDASWYTVVFDDGDEKTLRRSSLCLKGERHFAESETLDQLPLTNPEHFGTPVIGKKTNRGRRSNHIPEEESSSSSSDDDEEERKQTDELLGKVVCVDYVSLEKKKAMWFPALVVCPDCSDEIAVKKDNILVRSFKDGKFTSVPRKDVHEITSDTVPKPDAVLKQAFDQALEFHKSRAIPANWKTELKEDSSSSEAEEEEEEEDDEKEKEDNSSEEEEEIEPFPEERENFLQQLYKFMEDRGTPINKRPVLGYRNLNLFKLFRLVHKLGGFDNIESGAVWKQVYQDLGIPVLNSAAGYNVKCAYKKYLYGFEEYCRSANIDFQMALPEKVLNKPCKDCENKEVKVKEESETEIKEVNVEDSKNVMPKEETPAEDESERKENIKPSLGSKKSLLECIPAQSDEEKEAHITKLEENENLEDKDGGRARTEEAFSTEVDGEEEQARSGDETNKEEDEDDEEIEEEEEEDEEEDEDEDDDDNNEEEEFECYPPGMKVQVRYGRGKNQKMYEASIKDSDVEGGEALYLVHYCGWNVRYDEWIKADKIVRPADKNVPKIKHRKKIKNKLDKEKDRDEKYSPKNCKLRRLSKSPFQSNPSPEMVSKLDLADAKNSDTAHIKSIEITSILNGLQASESSAEDSEQEDERCTQDVDNIGKDESKVEHSTHSRNELISKEEQSSPSLLEENKVHTDLVIAKTVSKSPERLRKDMEAISEDTDFEEEDEITKKRKDVKKDTTDKALKPQTKRGKRRYCSADECLQTGSPGKKEDRTKSKEPLCTENSSNSSSDEDEEEKSKAKMTPTKKYNGLEEKRKSLRTTSFYSGFSEVAEKRIKLLNNSDERLQNNRAKDRKDVWSSIQGQWPKKTLKELFSDSDTEAAASPPHPAPDEGAVEESLQTVAEEESCSPIMELEKPLPASVDNKPIEEKPLEVSDRKTEFPSSGSNSVLNTPPTTPESPSSVTITEASQQQSSVTVSVPLPPNQEEVRSIKSETDSTIEVDSVVGELQDLQSEGNSSPAGFDASVSSSSSNQPEPDNPEKACTGQKRVKDTQGVGSSSKKQKRSHKATVVNNKKKGKGTNSSDSEELSAGESVTKTQTIKSVPTGMKTHNSKSPARVQSPGKGGRNGDKDPDLKEPSNRLPKVYKWSFQTSDLENMTSAERISILQEKLQEIRKHYLSLKSEVASIDRRRKRLKKKERESAATSSSSSSPSSSSITAAVMLTLAEPSMSSASQNGMSVECR
B3: Sin3a (protein, UniProt Q60520 1-1274)
chain: MKRRLDDQESPVYAAQQRRIPGSTEAFSHQHRVLAPAPPVYEAVSETMQSATGIQYSVAPNYQVSAVPQSSGSHGPAIAAVHSSHHHPTAVQPHGGQVVQSHAHPAPPVAPVQGQQQFQRLKVEDALSYLDQVKLQFGSQPQVYNDFLDIMKEFKSQSIDTPGVISRVSQLFKGHPDLIMGFNTFLPPGYKIEVQTNDMVNVTTPGQVHQIPTHGIQPQPQPPPQHPSQPSSQSAPTPAQPAPQPTAAKVSKPSQLQAHTPASQQTPPLPPYASPRSPPVQPHTPVTISLGTAPSLQNNQPVEFNHAINYVNKIKNRFQGQPDIYKAFLEILHTYQKEQRNAKEAGGNYTPALTEQEVYAQVARLFKNQEDLLSEFGQFLPDANSSVLLSKTTAEKVDSVRNDHGGTVKKPQLNNKPQRPSQNGCQIRRHSGTGATPPVKKKPKLMSLKESSMADASKHGVGTESLFFDKVRKALRSAEAYENFLRCLVIFNQEVISRAELVQLVSPFLGKFPELFNWFKNFLGYKESVHLESFPKERATEGIAMEIDYASCKRLGSSYRALPKSYQQPKCTGRTPLCKEVLNDTWVSFPSWSEDSTFVSSKKTQYEEHIYRCEDERFELDVVLETNLATIRVLEAIQKKLSRLSAEEQAKFRLDNTLGGTSEVIHRKALQRIYADKAADIIDGLRKNPSIAVPIVLKRLKMKEEEWREAQRGFNKVWREQNEKYYLKSLDHQGINFKQNDTKVLRSKSLLNEIESIYDERQEQATEENAGVPVGPHLSLAYEDKQILEDAAALIIHHVKRQTGIQKEDKYKIKQIMHHFIPDLLFAQRGDLSDVEEEEEEEMDVDEATGAPKKHNGVGGSPPKSKLLFSNTAAQKLRGMDEVYNLFYVNNNWYIFMRLHQILCLRLLRICSQAERQIEEENREREWEREVLGIKRDKSDSPAIQLRLKEPMDVDVEDYYPAFLDMVRSLLDGNIDSSQYEDSLREMFTIHAYIAFTMDKLIQSIVRQLQHIVSDEVCVQVTDLYLAENNNGATGGQLNSQTSRSLLESAYQRKAEQLMSDENCFKLMFIQSQGQVQLTVELLDTEEENSDDPVEAERWSDYVERYMSSDTTSPELREHLAQKPVFLPRNLRRIRKCQRGREQQEKEGKEGNSKKTMENVESLDKLECRFKLNSYKMVYVIKSEDYMYRRTALLRAHQSHERVSKRLHQRFQAWVDKWTKEHVPREMAAETSKWLMGEGLEGLVPCTTTCDTETLHFVSINKYRVKYGTVFKAP
B4: Sap130 (protein, UniProt Q8BIH0 1-1057)
chain: MSSQQFPRLGTPSPGLSQPPSQIASSGSAGLINQVATVNDEAGRDADVGTREHVGPSSSLPPREEKQEPVVVRPYPQVQMLPAHHAVASATPVAVTAPPAHLTPAVPLSFSEGLMKPPPKPTMPSRPIAPAPPSTMSLPPKVPGQVTVTMESSIPQASAIPVATISGQQGHPSNLHHIMTTNVQMSIIRSNAPGPPLHIGASHLPRGAAAAAVMSSSKVTTVLRPTSQLPNAATAQPAVQHLIHQPIQSRPPVTTSSTIPPAVVATVSATRAQSPVITTTAAHAADSTLSRPTLSIQHPPSAAISIQRPAQSRDVTTRITLPSHPALGTPKQQLHTMAQKTIFSTGTPVAAATVAPILATNTLPSTTTAGSVSHTQAPTSTIVTMTMPSHSSHATAVTTSNIPVAKVVPQQITHTSPRIQPDYPPERSSLIPISGHRASPNPVAMETRNDNRPSVPVQFQYFLPTYPPSAYPLAAHTYTPITSSVSTIRQYPVSAQAPNSTITAQTGVGVASTVHLNPMQLMTVDASHARHIQGIQPAPISTQGIQPAPIGTSGIQPAPIGTPGIHSAAPINTQGLQPAAMANQQPQPEGKTSAVVLADGATIVANPISNPFSAAPAATTVVQTHSQSASTNTPAQGSSPRPSILRKKPATDGMAVRKTLLPPQPPDVATPRVESSMRSASGSPRPAGAKPKSEVHVSIATPVTVSLETISNQNAEQPTVAVPPTAQQPPPTIPSMIAAASPPSQPAIALSTIPGAVPVTPPITTIAATPTLSAPVGGTPSTVLGPPVPEIKVKEEAEPVDITRPVSTVPPLATNTVSPSLALLASNLSMPPSDLPPGASPRKKPRKQQHVISTEEGDMMETNSTDDEKSAAKSLLVKAEKRKSPPKEYIDEEGVRYVPVRPRPPITLLRHYRNPWKAAYHHFQRYSDVRVKEEKKAMLQEIANQKGVSCRAQGWKVHLCAAQLLQLTNLEHDVYERLTNLQEGIIPKKKAATDDDLHRINELIQGNMQRCKLVMDQISEARDSMLKVLDHKDRVLKLLNKNGTVKKVSKLKRKEKV
B5: Suds3 (protein, UniProt Q8BR65 1-328)
chain: MSAAGLLAPAPAPAAAPAAPEYYPEDEEELESAEDDERSCRGRESDEDTEDASETDLAKHDEEDYVEMKEQMYQDKLASLKRQLQQLQEGTLQEYQKRMKKLDQQYRERIRNAELFLQLETEQVERNYIKEKKAAVKEFEDKKVELKENLIAELEEKKKMIENEKLTMELTGDSMEVKPIMTRKLRRRPNDPVPIPDKRRKPAPAQLNYLLTDEQIMEDLRTLNKLKSPKRPASPSSPEHLPATPAESPAQRFEARIEDGKLYYDKRWYHKSQAIYLESKDNQKLSCVISSVGANEIWVRKTSDSTKMRIYVGQLQRGLFVIRRRSAA

Sequences of proteins named here, by UniProt entry; tags and fusion partners are left off.
UniProt O09106: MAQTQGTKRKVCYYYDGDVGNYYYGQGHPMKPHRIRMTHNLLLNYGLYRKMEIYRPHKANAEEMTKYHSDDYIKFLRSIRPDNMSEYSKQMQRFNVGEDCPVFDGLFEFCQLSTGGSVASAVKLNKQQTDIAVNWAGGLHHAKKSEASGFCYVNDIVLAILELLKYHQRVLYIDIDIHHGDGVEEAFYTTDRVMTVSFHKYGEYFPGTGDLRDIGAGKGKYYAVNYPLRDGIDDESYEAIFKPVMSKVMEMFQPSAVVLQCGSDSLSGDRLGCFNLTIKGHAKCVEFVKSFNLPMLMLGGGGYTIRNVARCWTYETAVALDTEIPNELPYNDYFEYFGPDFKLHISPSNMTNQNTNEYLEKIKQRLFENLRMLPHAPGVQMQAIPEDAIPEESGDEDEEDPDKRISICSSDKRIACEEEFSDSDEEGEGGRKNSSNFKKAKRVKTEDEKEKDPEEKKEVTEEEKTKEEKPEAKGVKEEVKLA

Assays:
[1] = target: T1, Fam60a-Venus fusion protein (mouse) (UniProt Q8C8M1); assay: affinity purification with mass spectrometry; nuclear extracts of E10.5 Fam60a::Venus embryos prepared under three conditions (RIPA buffer, buffer C with 400 mM NaCl, nondenaturing lysis buffer with Benzonase); bead-coupled antibodies to GFP, 3 hr at 4°C; control: beads previously exposed to recombinant GFP; SDS-PAGE, silver staining, LC-MS/MS
T1 sequence: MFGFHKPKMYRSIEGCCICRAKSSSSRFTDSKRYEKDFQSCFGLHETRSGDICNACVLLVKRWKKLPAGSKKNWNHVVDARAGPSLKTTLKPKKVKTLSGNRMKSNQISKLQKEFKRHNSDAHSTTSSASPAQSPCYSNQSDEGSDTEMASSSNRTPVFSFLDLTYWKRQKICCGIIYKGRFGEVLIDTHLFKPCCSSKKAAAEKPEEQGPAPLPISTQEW

[2] = target: T1, Fam60a-Venus fusion protein (mouse); assay: condition: only nuclear extracts prepared with RIPA buffer; affinity purification with mass spectrometry; as a1, but only the nuclear extracts prepared with RIPA buffer (the most stringent of the three conditions)
[3] = target: T1, Fam60a-Venus fusion protein (mouse); assay: affinity purification with mass spectrometry; nuclear extracts of E10.5 Fam60a::Venus embryos prepared under three conditions (RIPA buffer, buffer C with 400 mM NaCl, nondenaturing lysis buffer with Benzonase); bead-coupled antibodies to GFP, 3 hr at 4°C; control: beads previously exposed to recombinant GFP; SDS-PAGE, silver staining, LC-MS/MS; remark: listed apart in the source

| Molecule | binding [1] | binding [2] | binding [3] |
| --- | --- | --- | --- |
| Hdac1 (from UniProt O09106 1-482) (enzyme) | binds | – | – |
| B1 | – | no binding | binds weakly |
| B2 | – | no binding | binds weakly |
| B3 | – | – | binds |
| B4 | – | – | binds |
| B5 | – | – | binds |

Source: article PMC6072441
